Source: article PMC4447949, “Structures of the Ets Protein DNA-binding Domains of Transcription Factors Etv1, Etv4, Etv5, and Fev” (The Journal of Biological Chemistry, 2015)
No constants are given. Whether binding was seen depends on the method and setting.

Legend:
Assay in all cases: condition: only purified under reducing conditions (0.5 mM TCEP); SEC; protein purified under reducing conditions (0.5 mM TCEP); Superdex S75 or 200, 20 mM HEPES pH 7.5, 500 mM NaCl, 5% glycerol; both purified
[1] = target: Etv1 wild-type Ets domain (amino acids 326-429) (human) (UniProt P50549)
[2] = target: Etv4 Ets domain (amino acids 338-470) (human) (UniProt P43268)
[3] = target: Etv5 Ets domain (amino acids 365-462) (human) (UniProt P41161)

B1: Etv1 wild-type Ets domain (amino acids 326-429) (domain or fragment, human, UniProt P50549 326-429, looked up)
chain: GPTYQRRGSLQLWQFLVALLDDPSNSHFIAWTGRGMEFKLIEPEEVARRWGIQKNRPAMNYDKLSRSLRYYYEKGIMQKVAGERYVYKFVCDPEALFSMAFPDN
notes: Same limits as the crystallised Y329S-P427S construct (PDB 4AVP, 4BNC); TEV cleavage leaves SM before the insert; From Rosetta-gami 2 under nonreducing conditions it is a disulfide-linked dimer; also called WT; WT dimer; source: E. coli BL21 (DE3) Rosetta-R3, purified with TCEP (Ni-IDA, TEV cleavage, SEC); E. coli Rosetta-gami 2, purified without TCEP; not shown: His6, N-terminal, cleaved
binding [1]: no binding

B2: Etv4 Ets domain (amino acids 338-470) (domain or fragment, human, UniProt P43268 338-470, looked up)
chain: RGALQLWQFLVALLDDPTNAHFIAWTGRGMEFKLIEPEEVARLWGIQKNRPAMNYDKLSRSLRYYYEKGIMQKVAGERYVYKFVCEPEALFSLAFPDNQRPALKAEFDRPVSEEDTVPLSHLDESPAYLPELA
notes: Etv4 (PEA3), Ets domain construct, amino acids 338-470; TEV cleavage leaves SM before the insert; The limits are those told for the crystallised construct; also called PEA3; Etv4 WT; source: E. coli BL21 (DE3) Rosetta-R3, purified with TCEP (Ni-IDA, TEV cleavage, SEC); E. coli Rosetta-gami 2, purified without TCEP; not shown: His6, N-terminal, cleaved
binding [2]: no binding

B3: Etv5 Ets domain (amino acids 365-462) (domain or fragment, human, UniProt P41161 365-462, looked up)
chain: RGSLQLWQFLVTLLDDPANAHFIAWTGRGMEFKLIEPEEVARRWGIQKNRPAMNYDKLSRSLRYYYEKGIMQKVAGERYVYKFVCDPDALFSMAFPDN
notes: Etv5 (ERM), Ets domain construct, amino acids 365-462; TEV cleavage leaves SM before the insert; The limits are those told for the crystallisation construct; also called ERM; Etv5 WT; source: E. coli BL21 (DE3) Rosetta-R3, purified with TCEP (Ni-IDA, TEV cleavage, SEC); E. coli Rosetta-gami 2, purified without TCEP; not shown: His6, N-terminal, cleaved
binding [3]: no binding
